The results in this text go back to article PMC4661536.

By UniProt entry, the sequences of proteins in these tests, tags left out. Residues count along the entry.
UniProt Q92804, 231-323: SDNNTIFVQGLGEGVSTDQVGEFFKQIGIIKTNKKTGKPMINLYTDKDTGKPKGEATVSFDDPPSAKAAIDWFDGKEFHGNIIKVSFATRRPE

The comparison behind a weaker result is the experiment's own reference, which may not be listed here.

The data set concerns the target TAF15-RRM (Homo sapiens) (UniProt Q92804). The data set can be described thus: NMR. To be noted: NMR: 20 mM Na phosphate pH 6.2, 25 mM NaCl, 5% D2O (RRM) or 25 mM Na2SO4, 5 mM beta-mercaptoethanol (TAF15-RRM-RanBP2), 298 K, recombinant protein, residues 231-323.

Turning to GGUGUG [GGU motif 6-mer], for the setting “few CSPs”, the binding result is given as “binds more weakly”.

In the case of CCUCUG [CUG motif 6-mer], where the note is “weak binding, seven residues with significant CSPs”, the binding result is “binds more weakly”.

Turning to GGCUGCG [CUG motif 7-mer, single CUG], the binding result (similar profile to CCUCUG) is listed as “binds more weakly”.

Take GCUGCUG [CUG motif 7-mer, tandem CUG]: where the note is “similar CSPs to single-CUG RNAs”, the binding result was “binds more weakly”.
